Test results from PMC3383762.
Results are given in words; binding and its absence hold for the method and conditions named. In cells and extracts the contact can be indirect.

Protein sequences, listed by entry. Tags and fused reporters are not part of them. Residues count along the entry.
UniProt P19022, residues 160-906: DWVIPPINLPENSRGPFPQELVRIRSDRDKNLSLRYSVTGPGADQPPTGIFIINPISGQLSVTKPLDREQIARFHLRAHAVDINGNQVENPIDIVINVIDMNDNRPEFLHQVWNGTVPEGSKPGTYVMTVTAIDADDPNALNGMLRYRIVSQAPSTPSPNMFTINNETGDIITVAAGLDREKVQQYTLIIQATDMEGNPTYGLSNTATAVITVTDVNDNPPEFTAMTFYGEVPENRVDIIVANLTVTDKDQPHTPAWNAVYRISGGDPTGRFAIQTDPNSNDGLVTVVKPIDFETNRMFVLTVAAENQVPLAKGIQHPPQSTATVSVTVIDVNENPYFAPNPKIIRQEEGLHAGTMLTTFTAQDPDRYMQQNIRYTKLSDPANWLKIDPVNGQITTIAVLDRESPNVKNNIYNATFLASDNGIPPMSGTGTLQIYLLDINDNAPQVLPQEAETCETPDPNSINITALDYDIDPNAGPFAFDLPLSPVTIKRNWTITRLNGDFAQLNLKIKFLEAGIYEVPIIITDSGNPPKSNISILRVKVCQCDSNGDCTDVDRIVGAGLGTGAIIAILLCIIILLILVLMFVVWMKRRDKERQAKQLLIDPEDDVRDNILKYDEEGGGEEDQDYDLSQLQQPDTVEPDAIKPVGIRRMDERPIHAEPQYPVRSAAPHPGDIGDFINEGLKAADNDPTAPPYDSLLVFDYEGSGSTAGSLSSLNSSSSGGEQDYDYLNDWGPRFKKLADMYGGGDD

Target: neural (N)-cadherin (human (endogenous in uveal melanoma cell lines)) (UniProt P19022)
Assay: co-IP; uveal melanoma cells; told only in the discussion and no data shown; which protein was precipitated and the conditions of the precipitation are not described

binding: no binding
B1: Activated Leukocyte Cell Adhesion Molecule (ALCAM) (protein, UniProt Q13740 28-583)
chain: WYTVNSAYGDTIIIPCRLDVPQNLMFGKWKYEKPDGSPVFIAFRSSTKKSVQYDDVPEYKDRLNLSENYTLSISNARISDEKRFVCMLVTEDNVFEAPTIVKVFKQPSKPEIVSKALFLETEQLKKLGDCISEDSYPDGNITWYRNGKVLHPLEGAVVIIFKKEMDPVTQLYTMTSTLEYKTTKADIQMPFTCSVTYYGPSGQKTIHSEQAVFDIYYPTEQVTIQVLPPKNAIKEGDNITLKCLGNGNPPPEEFLFYLPGQPEGIRSSNTYTLTDVRRNATGDYKCSLIDKKSMIASTAITVHYLDLSLNPSGEVTRQIGDALPVSCTISASRNATVVWMKDNIRLRSSPSFSSLHYQDAGNYVCETALQEVEGLKKRESLTLIVEGKPQIKMTKKTDPSGLSKTIICHVEGFPKPAIQWTITGSGSVINQTEESPYINGRYYSKIIISPEENVTLTCTAENQLERTVNSLNVSAISIPEHDEADEISDENREKVNDQAKLIVGIVVGLLLAALVAGVVYWLYMKKSKTASKHVNKDLGNMEENKKLEENNHKTEA
